Measured values reported in PubChem BioAssay AID2099 (Broad Institute, 2009).
Among all 330,000 compounds or so, about 230 (0.07%) were called active. Inconclusive means that the source gave no clear call. Such entries were picked first, then a sample of the others.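 How the source made its calls: active means more than half of a compound's replicate wells show inhibition beyond 50%, single wells judged on their own value; inconclusive means some, but no more than half, of replicates pass 50% inhibition; inactive means no replicate passes 50% inhibition.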

By UniProt entry, the sequences of proteins in these tests, tags left out. Residues count along the entry.
UniProt Q9H3R0, 1-420 limits assumed: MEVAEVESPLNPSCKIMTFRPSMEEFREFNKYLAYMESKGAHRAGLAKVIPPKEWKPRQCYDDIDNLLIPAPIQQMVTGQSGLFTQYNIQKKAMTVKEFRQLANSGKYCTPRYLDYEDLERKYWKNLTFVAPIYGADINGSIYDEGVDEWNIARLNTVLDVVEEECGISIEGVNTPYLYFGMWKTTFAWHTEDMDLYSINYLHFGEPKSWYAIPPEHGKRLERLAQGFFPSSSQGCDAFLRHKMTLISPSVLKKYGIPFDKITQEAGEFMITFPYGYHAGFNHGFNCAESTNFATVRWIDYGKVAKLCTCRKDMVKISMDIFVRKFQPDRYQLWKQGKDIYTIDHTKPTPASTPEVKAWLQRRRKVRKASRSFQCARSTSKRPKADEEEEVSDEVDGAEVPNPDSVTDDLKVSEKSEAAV

Biological target: Lysine-specific demethylase 4C (Homo sapiens) (UniProt Q9H3R0)
Assay: inhibitors of GASC-1 histone demethylase, primary screen, biochemical, fluorescence, DELFIA europium (AID 2099);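 further: signal counts dimethyl H3K9 product captured on neutravidin plate; 0% = median of DMSO wells and 100% = 0.3 times that DMSO median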
Conditions: GST-JMJD2C(1-420) H3K9me3 demethylation, at 2.35 µM, hits give high values

Structure (SMILES)	inhibition
Cc1ccnc(NC(=S)NC(=O)/C=C/c2ccco2)c1	inactive: -0.475%
C=CCc1ccc(OCC(O)CN2CCC(Cc3ccccc3)CC2)c(OC)c1 (stereo not given)	inactive: -5.52%
COC(=O)/C(=C/c1ccc(OC)cc1)NC(=O)c1ccco1	inconclusive: -56.5%
C#Cc1ccc([C@@H]2C=C(C(=O)N3CCN(Cc4ccc5c(c4)OCO5)CC3)O[C@H](OCCCCO)C2)cc1	inconclusive: -222%
Cc1ccc(-c2cc(C(=O)NCC3CCCO3)no2)cc1 (stereo not given)	inconclusive: -253%
CCOC(=O)N1CCN(C(=O)c2noc3c2COc2ccccc2-3)CC1	inactive: 3.17%
CC(C)c1nnc(NC(=O)Cn2nc(-c3ccc4c(c3)OCCO4)ccc2=O)s1	inconclusive: -35.4%
Cn1ncc2c(O/N=C(\N)c3ccc(C(C)(C)C)cc3)ncnc21	inactive: 5.06%
C=CCNC(=S)N1CCN(CCNC2=CC(=O)CC(C)(C)C2)CC1	inconclusive: -69.4%
COc1ccc(CNC(=O)c2c(N)n(CCCN3CCOCC3)c3nc4ccccc4nc23)cc1	inactive: -7.64%
CCOc1cc(S(=O)(=O)NCCc2cccc(C)c2)c(OCC)cc1-n1cnnn1	inconclusive: -199%
Cc1cnc(C(=O)Nc2ccccc2-c2ccc(C)o2)cn1	inconclusive: -323%
COc1ccc(-n2c(O)c(/C=C3\C=Nc4ccccc43)c(=O)[nH]c2=O)cc1	inconclusive: -75.9%
c1ccc(OCCSc2nc3ccccc3o2)cc1	inactive: 4.28%
CCCCCOc1ccc(CN2CCOCC2)cc1Cl	inconclusive: -65%
CCOC(=O)C1CCN(S(=O)(=O)c2c(C)n(C)c(=O)n(C)c2=O)CC1	inactive: 35.4%
Cc1ccc(-c2csc3nc4cc(C(=O)NC5CCC(O)CC5)ccc4c(=O)n23)cc1 (stereo not given)	active: 66.6%
Cc1cc(C(=O)COC(=O)C23CC4CC(CC(O)(C4)C2)C3)c(C)n1-c1c(C)n(C)n(-c2ccccc2)c1=O	inactive: 78.1%
CCOC(=O)c1c(C)[nH]c(C(=O)OCCOc2ccccc2C)c1C	inconclusive: -52.8%
N#CC1(NC(=O)COc2ccccc2[N+](=O)[O-])CCCCC1	inactive: 4.82%
COc1ccc(OC)c2c(N3CCN(C)CC3)cc(C(F)(F)F)nc12	inactive: -23.7%
N#CC1=C(N)Oc2cc(N)ccc2C1c1ccccc1Cl (stereo not given)	inactive: 5.06%
COc1ccc(C2Nc3ccccc3C(=O)N2NS(C)(=O)=O)cc1OC (stereo not given)	inconclusive: -59.4%

For reference, some entries already given.
Structure (SMILES)	inhibition
C#Cc1ccc([C@@H]2C=C(C(=O)N3CCN(Cc4ccc5c(c4)OCO5)CC3)O[C@H](OCCCCO)C2)cc1	inconclusive: -222%
Cc1ccc(-c2cc(C(=O)NCC3CCCO3)no2)cc1 (stereo not given)	inconclusive: -253%
CCOC(=O)N1CCN(C(=O)c2noc3c2COc2ccccc2-3)CC1	inactive: 3.17%
CC(C)c1nnc(NC(=O)Cn2nc(-c3ccc4c(c3)OCCO4)ccc2=O)s1	inconclusive: -35.4%
Cn1ncc2c(O/N=C(\N)c3ccc(C(C)(C)C)cc3)ncnc21	inactive: 5.06%
C=CCNC(=S)N1CCN(CCNC2=CC(=O)CC(C)(C)C2)CC1	inconclusive: -69.4%
COc1ccc(CNC(=O)c2c(N)n(CCCN3CCOCC3)c3nc4ccccc4nc23)cc1	inactive: -7.64%
CCOc1cc(S(=O)(=O)NCCc2cccc(C)c2)c(OCC)cc1-n1cnnn1	inconclusive: -199%
Cc1cnc(C(=O)Nc2ccccc2-c2ccc(C)o2)cn1	inconclusive: -323%
COc1ccc(-n2c(O)c(/C=C3\C=Nc4ccccc43)c(=O)[nH]c2=O)cc1	inconclusive: -75.9%
c1ccc(OCCSc2nc3ccccc3o2)cc1	inactive: 4.28%
CCCCCOc1ccc(CN2CCOCC2)cc1Cl	inconclusive: -65%
CCOC(=O)C1CCN(S(=O)(=O)c2c(C)n(C)c(=O)n(C)c2=O)CC1	inactive: 35.4%
Cc1ccc(-c2csc3nc4cc(C(=O)NC5CCC(O)CC5)ccc4c(=O)n23)cc1 (stereo not given)	active: 66.6%
Cc1cc(C(=O)COC(=O)C23CC4CC(CC(O)(C4)C2)C3)c(C)n1-c1c(C)n(C)n(-c2ccccc2)c1=O	inactive: 78.1%
CCOC(=O)c1c(C)[nH]c(C(=O)OCCOc2ccccc2C)c1C	inconclusive: -52.8%
N#CC1(NC(=O)COc2ccccc2[N+](=O)[O-])CCCCC1	inactive: 4.82%
COc1ccc(OC)c2c(N3CCN(C)CC3)cc(C(F)(F)F)nc12	inactive: -23.7%
N#CC1=C(N)Oc2cc(N)ccc2C1c1ccccc1Cl (stereo not given)	inactive: 5.06%

Next part.

Structure (SMILES)	inhibition
O=C(O)c1cc(-c2ccc(-c3c(-c4ccc5c(c4)OCO5)noc3-c3ccsc3)cc2)nc2ccccc12	inconclusive: -135%
Cc1c(C)c2ccc(OC(C)C(=O)NCCc3c[nH]c4ccccc34)cc2oc1=O (stereo not given)	inconclusive: -103%
O=C(Cc1cnn(-c2ccccc2)c1)c1ccc(O)c(O)c1O	inactive: -13.6%
Cc1ccc(C(=O)Nc2ccsc2C(=O)O)cc1	inconclusive: -73%
COc1ccccc1C1C(C(=O)c2ccc(C)o2)=C(O)C(=O)N1c1cc(C)on1 (stereo not given)	inconclusive: -65.1%
CCCC(=O)Nc1ccccc1NC(=O)CN(C)S(=O)(=O)c1ccc(C)cc1	inconclusive: -257%
O=C(NNC(=O)C1CCN(S(=O)(=O)c2ccccc2)CC1)c1ccccc1O	active: 94%
CCOC(=O)N1CCN(C(=O)COC(=O)COc2c(C)cc(C)cc2C)CC1	inconclusive: -102%
Cc1ccc(OCCn2ccc(=O)[nH]c2=O)cc1C	inconclusive: -78.5%
O=C(COc1ccc2ccccc2c1)N1CCCC1	inconclusive: -66.6%
CCOC(=O)c1ccccc1NC(=O)CN(c1ccccc1OC)S(C)(=O)=O	inconclusive: -75.5%
CC(=O)N/N=C(\C)c1ccc2c(c1)OCCO2	inactive: -3.75%
O=C(Nc1nc2ccsc2c(=O)s1)c1ccc(Cl)cc1	inconclusive: -55.3%
Cc1cc2ccccn2c1C(=O)c1ccncc1	active: 69.3%
CC(=O)N(C(C)=O)c1ncc2c([nH]c3ccccc32)c1C#N	inactive: 122%
Cc1cc(C)n(-c2nc3c(c(=O)[nH]c(=O)n3C)n2CC(O)COc2ccc(Cl)cc2Cl)n1 (stereo not given)	inactive: -7.44%
N#Cc1cccnc1Nc1cccc(Cl)c1	inactive: -2.08%
Clc1ccc(OCc2cn3cccnc3n2)c2ncccc12	inconclusive: -55%
Cc1cc(C)n2c(SCc3ccccc3Cl)nnc2n1	inconclusive: -301%
COCC(=O)N(C)c1nnc(-c2ccccn2)s1	inactive: 5.24%
COC(=O)COc1cccc(NC(=O)c2cccs2)c1	inconclusive: -73.8%
Cc1nnc(NC(=O)c2cc(-c3ccco3)nc3ccccc23)s1	inconclusive: -164%
CCOC(=O)C(CN1CCCC1)c1ccccc1 (stereo not given)	inactive: -5.08%

Structure (SMILES)	inhibition
Cc1ccc(NC(=S)c2nc3ccccc3[nH]2)cc1	inactive: -8.35%
CCc1nc2ccc(C(=O)NCCc3ccc(OC)cc3)cc2nc1CC	inconclusive: -78%
Cc1ccc(C(C[N+](=O)[O-])c2c(C)[nH]n(-c3ccccc3)c2=O)cc1 (stereo not given)	inconclusive: -111%
Cc1cc(=O)oc2c3c(cc(OCC(=O)NCC4CCC(C(=O)O)CC4)c12)OC(C)(C)CC3 (stereo not given)	inconclusive: -95.9%
COc1ccc(NS(=O)(=O)c2cn(C)cn2)cc1Cl	inactive: 6.03%
O=C(NCCc1c[nH]c2ccccc12)c1ccc2c(c1)OCO2	inactive: 1.9%
O=C(C1CCCCC1)N(CCN1CCCC1)c1nc2ccccc2s1	inactive: 0.312%
COc1ccc(C(=O)NCC(c2ccco2)N2CCOCC2)cc1OC (stereo not given)	inactive: 6.21%
CCOC(=O)C(C)Oc1ccsc1C(=O)OC (stereo not given)	active: 51.1%
COC(=O)c1cccc(NC(=O)Cc2nc(-c3ccccc3)sc2-c2ccc(C)cc2)c1	inactive: 3.45%
Cc1[nH]c2ccc(OCc3ccccc3)cc2c1CCN1C(=O)OC(C)(C)C1(C)O (stereo not given)	inactive: -3.43%
COc1ccc(NC(=O)c2ccc(C)o2)c([N+](=O)[O-])c1	inactive: -3.15%
COc1ccccc1/C=N/NC(=O)c1cccc(NC(=O)c2ccccc2Cl)c1	inconclusive: -74.4%
O=C1[C@H]2[C@@H](c3ccc(Cl)cc3)N3C(=O)N(c4cccc(Br)c4)C(=O)[C@@]3(Cc3ccc(Cl)cc3)[C@H]2C(=O)N1C1CCCCC1	inactive: 3.9%
COc1ccc(C(=O)O/N=C(\C)c2cnccn2)cc1	active: 57%
COc1ccc(-c2cc(=O)c3ccccc3o2)cc1	inconclusive: -289%
Nc1nc(Cl)cc(Oc2ccccc2F)n1	inconclusive: -50.1%
O=C(NCCS(=O)(=O)N1CCN(Cc2ccccc2)CC1)c1ccccc1	inconclusive: -119%
N#CC(c1ccc(O)cc1)N1CCOCC1 (stereo not given)	inconclusive: -23.9%
O=C(Nc1nc(-c2ccc3c(c2)OCCO3)cs1)c1ccc(S(=O)(=O)N2CCCCC2)cc1	inconclusive: -59.8%
Cc1nn(-c2cc(N3CCCCC3)ccc2[N+](=O)[O-])c(=O)c2ccccc12	inconclusive: -117%
COc1cc(OC)cc(C(=O)OCCCOC(=O)c2cc(OC)cc(OC)c2)c1	inconclusive: -58.8%
Cc1ccccc1N1C(=O)CC(N2CCN(C(=O)c3ccco3)CC2)C1=O (stereo not given)	inconclusive: -66.1%

Structure (SMILES)	inhibition
COC(=O)c1sc(NC(=O)c2cc3c(s2)CCCC3)nc1C	active: 59.8%
CN1CCN(Cc2c(O)ccc3occ(C(=O)c4ccccc4)c23)CC1	inconclusive: -94.1%
O=c1[nH]c(/C(Cl)=C/c2cccc(F)c2)nc2cc(C(F)(F)F)ccc12	inconclusive: -59.5%
CN(C)c1ccc(N=Cc2nc(-c3ccccc3)oc2OC(=O)c2ccccc2)cc1	active: 76.5%
COc1ccc2[nH]c(=O)c(CN(CC3CCCO3)C(=S)Nc3cccc(C)c3)cc2c1 (stereo not given)	inconclusive: -52.8%
O=C(Nc1nc2ccc(Cl)cc2s1)c1ccco1	inconclusive: -68.9%
COc1ccc(Cl)cc1NC(=O)CN(C)C(=O)CCC(=O)c1cc(C)sc1C	inconclusive: -146%
Cc1ccc(S(=O)(=O)NCC(=O)OCC(=O)NCCc2ccccc2)cc1	inconclusive: -54.8%
O=C(Cn1nc(-c2ccc(Cl)cc2)ccc1=O)NCC1COCCO1 (stereo not given)	active: 71.4%
Cn1c(=O)c(-c2ccccc2)nn2c3ccccc3nc12	active: 52.1%
COc1ccc(S(=O)(=O)N2CCC3(CC2)OCCN3S(=O)(=O)c2cccs2)cc1OC	inconclusive: -61.2%
CNCCCOc1cccc(OC(C)C)c1	inconclusive: -179%
Cc1ccc(S(=O)(=O)Nc2cc3c4c(c2)C(C)C(=O)N4CCC3)cc1 (stereo not given)	inconclusive: -160%
O=C(CCN1C(=O)COc2ccccc21)NCCCN1CCc2ccccc2C1	inconclusive: -123%
O=C(c1ccco1)N1CCN(C(=O)c2ccc(COc3ccc4c(c3)CCC4)o2)CC1	inconclusive: -52.2%
CCOC(=O)CSc1nsc(SCC(=O)OCC)c1C#N	inconclusive: -81.8%
C=CCSc1nc2c(c(C3CC=CCC3)c1C#N)CCC2 (stereo not given)	inconclusive: -57.2%
O=C(CSc1n[nH]c(-c2ccccn2)n1)Nc1ccccc1	inactive: -1.13%
CCN1C(=O)[C@H]2[C@@H](c3ccc(-c4cccc(Cl)c4)cc3)N[C@@](C)(C(=O)OC)[C@H]2C1=O	inconclusive: -192%
Cn1cccc1/C=C1\CCC/C(=C\c2cccn2C)C1=O	inconclusive: -52%
CCCCn1c(N)c(N(CCOC)C(=O)c2ccc(-c3cccc(C(F)(F)F)c3)o2)c(=O)[nH]c1=O	inconclusive: -77.1%
